For at least one compound, name, drawing or mass did not settle the structure.
Test system: PGE2 production in ionomycin-stimulated STTG cells
Test: Prostaglandin E2 assay (PGE2 EIA) in ionomycin-stimulated STTG cells
Type: cell-based, human
Conditions: FIG. 1, result in words
Protocol: FIG. 1. Percent inhibition of prostaglandin E2 (PGE2) production in ionomycin-stimulated STTG cells. PGE2 production was assayed in ionomycin-stimulated STTG cells treated with N-acetyl-L-aspartate (NAA), aspirin (Asp) or dexamethasone (Dex) using a PGE2 enzyme immunoassay described in Example 1. Cells were pre-incubated for 1 hour with NAA, Asp or Dex and then stimulated with 1 μM ionomycin at 37° C., 10% CO2 for 24 hours. Percent inhibition of PGE2 production was measured compared to ionomycin-stimulated STTG cells in the absence of NAA, Asp or Dex. Data represent mean ±SD of three separate experiments. Asterisks indicate a significant difference between untreated, ionomycin-stimulated STTG cells and treated, ionomycin-stimulated STTG cells: *p<0.01. Iono=ionomycin.
FIG. 2. Effect of glutamate receptor antagonists and NAA on PGE2 release in STTG cells stimulated with ionomycin. PGE2 production was assayed in ionomycin-stimulated STTG cells treated with NAA or potential glutamate receptor antagonists (AP-4 and GDE) using a PGE2 enzyme immunoassay described in Example 1. […] Percent inhibition of PGE2 production was measured compared to ionomycin-stimulated STTG cells in the absence of NAA or potential glutamate receptor antagonists. […]

C[C@@H]1C[C@H]2[C@@H]3CCC4=CC(=O)C=C[C@]4(C)[C@@]3(F)[C@@H](O)C[C@]2(C)[C@@]1(O)C(=O)CO [dexamethasone]
inhibition of cyclooxygenases as evidenced by lack of PGE2 production: complete inhibition

Source: patent publication US20080167376A1, “Methods and products which utilize N-acyl-L-aspartic acid” (DMI BIOSCIENCES, INC., priority 2003, published 2008)
